Assay results reported in paper doi:10.1101/2022.11.10.516022.
These are yes or no findings as the source states them, for the method shown. Binding seen in cells or lysates may run through a third protein. A result given as binding can be weak or reduced; the word gives no strength. For some assays here: Where a sequence is shown, tags or fusion partners need not be part of it. One block for each molecule: values may come before it.

Key:
[1] = target: T1, endogenous Perilipin 1 (Plin1) (mouse (endogenous in WAT and 3T3-L1 adipocytes)) (UniProt Q8CGN5); test: co-IP
T1 sequence: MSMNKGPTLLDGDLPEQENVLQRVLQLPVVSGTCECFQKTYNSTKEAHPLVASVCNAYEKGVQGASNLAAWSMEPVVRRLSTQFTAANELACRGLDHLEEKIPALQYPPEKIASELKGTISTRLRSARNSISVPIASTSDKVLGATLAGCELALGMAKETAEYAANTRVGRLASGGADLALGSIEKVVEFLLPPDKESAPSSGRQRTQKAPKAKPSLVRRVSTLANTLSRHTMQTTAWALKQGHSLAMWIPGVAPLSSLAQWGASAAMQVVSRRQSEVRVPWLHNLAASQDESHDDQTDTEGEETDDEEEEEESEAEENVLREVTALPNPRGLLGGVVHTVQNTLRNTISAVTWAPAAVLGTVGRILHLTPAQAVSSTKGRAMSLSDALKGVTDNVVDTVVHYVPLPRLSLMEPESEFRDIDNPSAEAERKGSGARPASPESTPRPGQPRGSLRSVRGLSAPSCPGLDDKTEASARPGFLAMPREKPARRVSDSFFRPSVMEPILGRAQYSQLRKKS

[2] = target: T2, Plin1SD (Plin1 S81, S222, S276 mutated to aspartate) (UniProt Q8CGN5); test: co-IP
T2 sequence: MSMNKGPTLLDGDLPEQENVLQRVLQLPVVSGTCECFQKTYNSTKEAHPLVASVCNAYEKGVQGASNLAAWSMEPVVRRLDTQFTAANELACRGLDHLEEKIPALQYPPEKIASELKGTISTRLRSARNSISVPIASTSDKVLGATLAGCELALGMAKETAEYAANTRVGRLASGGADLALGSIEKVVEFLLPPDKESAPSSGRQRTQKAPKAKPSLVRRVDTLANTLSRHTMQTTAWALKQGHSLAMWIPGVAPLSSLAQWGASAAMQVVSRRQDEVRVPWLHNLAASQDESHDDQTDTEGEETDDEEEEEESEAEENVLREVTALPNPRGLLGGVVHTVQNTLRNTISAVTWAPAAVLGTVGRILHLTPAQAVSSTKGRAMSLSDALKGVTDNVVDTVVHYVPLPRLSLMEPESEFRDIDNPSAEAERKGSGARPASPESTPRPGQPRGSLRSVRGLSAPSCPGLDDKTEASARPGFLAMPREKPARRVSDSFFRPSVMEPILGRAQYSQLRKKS

[3] = target: T3, Myc-tagged full-length Plin1 (F-Plin1) (UniProt Q8CGN5); test: co-IP
T3 sequence: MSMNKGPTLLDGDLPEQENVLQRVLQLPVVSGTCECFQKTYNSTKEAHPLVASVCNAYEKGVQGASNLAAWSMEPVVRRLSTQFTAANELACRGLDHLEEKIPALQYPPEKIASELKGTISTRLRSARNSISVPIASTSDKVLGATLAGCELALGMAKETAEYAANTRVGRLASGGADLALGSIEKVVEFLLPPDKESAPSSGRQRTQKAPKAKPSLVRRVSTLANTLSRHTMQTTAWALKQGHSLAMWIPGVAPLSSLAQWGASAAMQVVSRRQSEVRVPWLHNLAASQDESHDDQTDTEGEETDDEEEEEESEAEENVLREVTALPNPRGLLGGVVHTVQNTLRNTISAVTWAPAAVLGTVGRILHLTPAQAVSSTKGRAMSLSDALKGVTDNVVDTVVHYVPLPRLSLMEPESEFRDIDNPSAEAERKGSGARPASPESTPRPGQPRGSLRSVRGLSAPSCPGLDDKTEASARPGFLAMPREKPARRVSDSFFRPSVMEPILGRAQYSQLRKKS

[4] = target: HA-tagged ApoL6 (adipoQ-ApoL6 TG transgene) (mouse); test: co-IP
[5] = target: endogenous ApoL6 (mouse (endogenous in WAT)); test: co-IP
[6] = target: Myc-tagged ApoL6 (aP2-ApoL6 TG transgene) (mouse); test: co-IP
[7] = target: ApoL6-HA overexpressed in differentiated 3T3-L1 adipocytes (mouse); test: co-IP
ApoL6-cVenus (mouse) = test: split reporter

binding [4]: binds
binding [5]: binds
binding [6]: binds
binding [7]: binds
B1: endogenous Perilipin 1 (Plin1) (protein, UniProt Q8CGN5 1-517)
chain: MSMNKGPTLLDGDLPEQENVLQRVLQLPVVSGTCECFQKTYNSTKEAHPLVASVCNAYEKGVQGASNLAAWSMEPVVRRLSTQFTAANELACRGLDHLEEKIPALQYPPEKIASELKGTISTRLRSARNSISVPIASTSDKVLGATLAGCELALGMAKETAEYAANTRVGRLASGGADLALGSIEKVVEFLLPPDKESAPSSGRQRTQKAPKAKPSLVRRVSTLANTLSRHTMQTTAWALKQGHSLAMWIPGVAPLSSLAQWGASAAMQVVSRRQSEVRVPWLHNLAASQDESHDDQTDTEGEETDDEEEEEESEAEENVLREVTALPNPRGLLGGVVHTVQNTLRNTISAVTWAPAAVLGTVGRILHLTPAQAVSSTKGRAMSLSDALKGVTDNVVDTVVHYVPLPRLSLMEPESEFRDIDNPSAEAERKGSGARPASPESTPRPGQPRGSLRSVRGLSAPSCPGLDDKTEASARPGFLAMPREKPARRVSDSFFRPSVMEPILGRAQYSQLRKKS

binding (ApoL6-cVenus (mouse)): binds
B2: Perilipin 1-nVenus (protein, UniProt Q8CGN5 1-517)
chain: MSMNKGPTLLDGDLPEQENVLQRVLQLPVVSGTCECFQKTYNSTKEAHPLVASVCNAYEKGVQGASNLAAWSMEPVVRRLSTQFTAANELACRGLDHLEEKIPALQYPPEKIASELKGTISTRLRSARNSISVPIASTSDKVLGATLAGCELALGMAKETAEYAANTRVGRLASGGADLALGSIEKVVEFLLPPDKESAPSSGRQRTQKAPKAKPSLVRRVSTLANTLSRHTMQTTAWALKQGHSLAMWIPGVAPLSSLAQWGASAAMQVVSRRQSEVRVPWLHNLAASQDESHDDQTDTEGEETDDEEEEEESEAEENVLREVTALPNPRGLLGGVVHTVQNTLRNTISAVTWAPAAVLGTVGRILHLTPAQAVSSTKGRAMSLSDALKGVTDNVVDTVVHYVPLPRLSLMEPESEFRDIDNPSAEAERKGSGARPASPESTPRPGQPRGSLRSVRGLSAPSCPGLDDKTEASARPGFLAMPREKPARRVSDSFFRPSVMEPILGRAQYSQLRKKS

Continued, molecule first:

Molecule: Myc-tagged ApoL6 (aP2-ApoL6 TG transgene) (mouse)
binding [1]: binds

Molecule: ApoL6-GST (GST-tagged full-length ApoL6) (mouse)
binding [2]: binds
binding [3]: binds
